# Assay results from the supplement of paper PMC8728848.
# The list shows a part of the results.
# Experiments:
# Test in all cases: glycan array binding signal (z-score within array); higher = stronger binding
# Details in all cases: glycan notation: IUPAC condensed, linker removed
# [1] = biological target: Fuc(a1-2)Gal(b1-4)GlcNAc(b1-3)Gal(b1-4)GlcNAc(b1-2)Man(a1-3)[Fuc(a1-2)Gal(b1-4)GlcNAc(b1-3)Gal(b1-4)GlcNAc(b1-2)Man(a1-6)]Man(b1-4)GlcNAc(b1-4)GlcNAc
# In short: (§1)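 Glycan array data were curated from 3228 arrays in the Consortium for Functional Glycomics database and kept only where the protein sequence was available. Glycan names were converted to IUPAC-condensed notation, and columns mapping to the same glycan were averaged. The binding signal is a within-array Z-score, averaged across arrays of the same protein sequence at different concentrations or buffers and across linkers. Negative Z-scores can be read as non-binding.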
# [2] = biological target: Fuc(a1-2)Gal(b1-4)GlcNAc(b1-3)Gal(b1-4)GlcNAc(b1-3)Gal(b1-4)GlcNAc
# In short: as §1
# [3] = biological target: Fuc(a1-2)Gal(b1-4)GlcNAc(b1-3)GalNAc
# In short: as §1
# [4] = biological target: Fuc(a1-2)Gal(b1-4)GlcNAc(b1-3)[Fuc(a1-2)Gal(b1-4)GlcNAc(b1-6)]GalNAc
# In short: as §1
# [5] = biological target: Fuc(a1-2)Gal(b1-4)GlcNAc(b1-3)[Fuc(a1-3)[Gal(b1-4)]GlcNAc(b1-6)]Gal(b1-4)Glc
# In short: as §1
# [6] = biological target: Fuc(a1-2)Gal(b1-4)GlcNAc(b1-6)GalNAc
# In short: as §1
# [7] = biological target: Fuc(a1-2)Gal(b1-4)GlcNAc6S
# In short: as §1
# [8] = biological target: Fuc(a1-2)Gal(b1-4)[Fuc(a1-3)]GlcNAc
# In short: as §1
# [9] = biological target: Fuc(a1-2)Gal(b1-4)[Fuc(a1-3)]GlcNAc(b1-2)Man(a1-3)[Fuc(a1-2)Gal(b1-4)[Fuc(a1-3)]GlcNAc(b1-2)Man(a1-6)]Man(b1-4)GlcNAc(b1-4)[Fuc(a1-6)]GlcNAc
# In short: as §1
# [10] = biological target: Fuc(a1-2)Gal(b1-4)[Fuc(a1-3)]GlcNAc(b1-2)[Fuc(a1-2)Gal(b1-4)[Fuc(a1-3)]GlcNAc(b1-4)]Man(a1-3)[Fuc(a1-2)Gal(b1-4)[Fuc(a1-3)]GlcNAc(b1-2)Man(a1-6)]Man(b1-4)GlcNAc(b1-4)GlcNAc
# In short: as §1
# [11] = biological target: Fuc(a1-2)Gal(b1-4)[Fuc(a1-3)]GlcNAc(b1-3)Gal(b1-4)[Fuc(a1-3)]GlcNAc
# In short: as §1
# [12] = biological target: Fuc(a1-2)Gal(b1-4)[Fuc(a1-3)]GlcNAc(b1-3)Gal(b1-4)[Fuc(a1-3)]GlcNAc(b1-3)Gal(b1-4)[Fuc(a1-3)]GlcNAc
# In short: as §1
# [13] = biological target: Fuc(a1-2)Gal(b1-4)[Fuc(a1-3)]GlcNAc(b1-3)GalNAc
# In short: as §1
# [14] = biological target: Fuc(a1-2)Gal(b1-4)[Fuc(a1-3)]GlcNAc(b1-3)[Neu5Ac(a2-6)Gal(b1-4)GlcNAc(b1-6)]Gal(b1-4)Glc
# In short: as §1
# [15] = biological target: Fuc(a1-2)Gal3S(b1-4)GlcNAc
# In short: as §1
# [16] = biological target: Fuc(a1-2)Gal6S(b1-3)GlcNAc
# In short: as §1
# [17] = biological target: Fuc(a1-2)Gal6S(b1-3)GlcNAc6S
# In short: as §1
# Fuc(a1-2)Gal6S(b1-4)Glc = biological target: Fuc(a1-2)Gal6S(b1-4)Glc
# In short: as §1
# [18] = biological target: Fuc(a1-2)Gal6S(b1-4)Glc6S
# In short: as §1
# Fuc(a1-2)[Gal(a1-3)]Gal = biological target: Fuc(a1-2)[Gal(a1-3)]Gal
# In short: as §1
# [19] = biological target: Fuc(a1-2)[Gal(a1-3)]Gal(b1-3)GalNAc
# In short: as §1
# [20] = biological target: Fuc(a1-2)[Gal(a1-3)]Gal(b1-3)GalNAc(b1-3)Gal(a1-4)Gal(b1-4)Glc
# In short: as §1
# [21] = biological target: Fuc(a1-2)[Gal(a1-3)]Gal(b1-3)GlcNAc
# In short: as §1
# [22] = biological target: Fuc(a1-2)[Gal(a1-3)]Gal(b1-3)GlcNAc(b1-2)Man(a1-3)[Fuc(a1-2)[Gal(a1-3)]Gal(b1-3)GlcNAc(b1-2)Man(a1-6)]Man(b1-4)GlcNAc(b1-4)GlcNAc
# In short: as §1
# [23] = biological target: Fuc(a1-2)[Gal(a1-3)]Gal(b1-3)GlcNAc(b1-2)Man(a1-3)[Fuc(a1-2)[Gal(a1-3)]Gal(b1-3)GlcNAc(b1-2)Man(a1-6)]Man(b1-4)GlcNAc(b1-4)[Fuc(a1-6)]GlcNAc
# In short: as §1
# [24] = biological target: Fuc(a1-2)[Gal(a1-3)]Gal(b1-3)GlcNAc(b1-3)GalNAc
# In short: as §1
# [25] = biological target: Fuc(a1-2)[Gal(a1-3)]Gal(b1-3)GlcNAc(b1-6)GalNAc
# In short: as §1
# [26] = biological target: Fuc(a1-2)[Gal(a1-3)]Gal(b1-4)Glc
# In short: as §1
# [27] = biological target: Fuc(a1-2)[Gal(a1-3)]Gal(b1-4)GlcNAc
# In short: as §1
# [28] = biological target: Fuc(a1-2)[Gal(a1-3)]Gal(b1-4)GlcNAc(b1-2)Man
# In short: as §1
# [29] = biological target: Fuc(a1-2)[Gal(a1-3)]Gal(b1-4)GlcNAc(b1-2)Man(a1-3)[Fuc(a1-2)[Gal(a1-3)]Gal(b1-4)GlcNAc(b1-2)Man(a1-6)]Man(b1-4)GlcNAc(b1-4)GlcNAc
# In short: as §1
# [30] = biological target: Fuc(a1-2)[Gal(a1-3)]Gal(b1-4)GlcNAc(b1-2)Man(a1-3)[Fuc(a1-2)[Gal(a1-3)]Gal(b1-4)GlcNAc(b1-2)Man(a1-6)]Man(b1-4)GlcNAc(b1-4)[Fuc(a1-6)]GlcNAc
# In short: as §1
# [31] = biological target: Fuc(a1-2)[Gal(a1-3)]Gal(b1-4)GlcNAc(b1-3)GalNAc
# In short: as §1
# [32] = biological target: Fuc(a1-2)[Gal(a1-3)]Gal(b1-4)GlcNAc(b1-3)[Fuc(a1-2)[Gal(a1-3)]Gal(b1-4)GlcNAc(b1-6)]GalNAc
# In short: as §1
# [33] = biological target: Fuc(a1-2)[Gal(a1-3)]Gal(b1-4)GlcNAc(b1-6)GalNAc
# In short: as §1
# [34] = biological target: Fuc(a1-2)[Gal(a1-3)]Gal(b1-4)[Fuc(a1-3)]Glc
# In short: as §1
# [35] = biological target: Fuc(a1-2)[Gal(a1-3)]Gal(b1-4)[Fuc(a1-3)]GlcNAc
# In short: as §1
# [36] = biological target: Fuc(a1-2)[Gal(a1-3)]Gal(b1-4)[Fuc(a1-3)]GlcNAc(b1-3)GalNAc
# In short: as §1
# [37] = biological target: Fuc(a1-2)[Gal(a1-4)]Gal(b1-4)GlcNAc
# In short: as §1
# [38] = biological target: Fuc(a1-2)[GalNAc(a1-3)]Gal
# In short: as §1
# [39] = biological target: Fuc(a1-2)[GalNAc(a1-3)]Gal(b1-3)GalNAc(a1-3)[Fuc(a1-2)]Gal(b1-4)GlcNAc
# In short: as §1
# [40] = biological target: Fuc(a1-2)[GalNAc(a1-3)]Gal(b1-3)GalNAc(b1-3)Gal(a1-4)Gal(b1-4)Glc
# In short: as §1
# [41] = biological target: Fuc(a1-2)[GalNAc(a1-3)]Gal(b1-3)GlcNAc
# In short: as §1
# [42] = biological target: Fuc(a1-2)[GalNAc(a1-3)]Gal(b1-3)GlcNAc(b1-2)Man(a1-3)[Fuc(a1-2)[GalNAc(a1-3)]Gal(b1-3)GlcNAc(b1-2)Man(a1-6)]Man(b1-4)GlcNAc(b1-4)GlcNAc
# In short: as §1
# [43] = biological target: Fuc(a1-2)[GalNAc(a1-3)]Gal(b1-3)GlcNAc(b1-2)Man(a1-3)[Fuc(a1-2)[GalNAc(a1-3)]Gal(b1-3)GlcNAc(b1-2)Man(a1-6)]Man(b1-4)GlcNAc(b1-4)[Fuc(a1-6)]GlcNAc
# In short: as §1
binder,measurement,setting,value
"cFel (Cyprinus carpio), P68512 (protein) LDCTVIDGNLKQIDAGSGSVVGVNNLNETFVLIDNVFTKISGSLKHFSVGPAGQLGVNTANNIFKYQSGGFVQLAGLLKQVDAGGDQIIAGVNMYDDIYCLNMDANNKWPSSNTPWVQINGKLKYYSCGPYSCWGVNSNDQIFIMKDVSSNVCSGSGSFINIPGLLSMIEVATDGSVFGVNSQGNLYQRTGVTRSKPDGTDWISMVACPNGHKHVSFDLGVLWLVCVDGSIRKCILTD",glycan array binding signal (z-score),[1],0.04
same,glycan array binding signal (z-score),[2],1.05
same,glycan array binding signal (z-score),[3],-0.209
same,glycan array binding signal (z-score),[4],0.1
same,glycan array binding signal (z-score),[5],-0.83
same,glycan array binding signal (z-score),[6],2.42
same,glycan array binding signal (z-score),[7],0.68
same,glycan array binding signal (z-score),[8],0.152
same,glycan array binding signal (z-score),[9],3.47
same,glycan array binding signal (z-score),[10],-0.095
same,glycan array binding signal (z-score),[11],-0.711
same,glycan array binding signal (z-score),[12],-0.042
same,glycan array binding signal (z-score),[13],-1.34
same,glycan array binding signal (z-score),[14],1.24
same,glycan array binding signal (z-score),[15],-0.749
same,glycan array binding signal (z-score),[16],0.641
same,glycan array binding signal (z-score),[17],0.952
same,glycan array binding signal (z-score),Fuc(a1-2)Gal6S(b1-4)Glc,-1.13
same,glycan array binding signal (z-score),[18],-0.731
same,glycan array binding signal (z-score),Fuc(a1-2)[Gal(a1-3)]Gal,2.61
same,glycan array binding signal (z-score),[19],0.606
same,glycan array binding signal (z-score),[20],-0.608
same,glycan array binding signal (z-score),[21],-0.322
same,glycan array binding signal (z-score),[22],-1.06
same,glycan array binding signal (z-score),[23],0.642
same,glycan array binding signal (z-score),[24],1.62
same,glycan array binding signal (z-score),[25],-0.813
same,glycan array binding signal (z-score),[26],2.39
same,glycan array binding signal (z-score),[27],-1.2
same,glycan array binding signal (z-score),[28],-0.762
same,glycan array binding signal (z-score),[29],-1.02
same,glycan array binding signal (z-score),[30],-0.701
same,glycan array binding signal (z-score),[31],-0.365
same,glycan array binding signal (z-score),[32],1.29
same,glycan array binding signal (z-score),[33],-0.377
same,glycan array binding signal (z-score),[34],-1.28
same,glycan array binding signal (z-score),[35],0.163
same,glycan array binding signal (z-score),[36],0.69
same,glycan array binding signal (z-score),[37],-0.624
same,glycan array binding signal (z-score),[38],-0.748
same,glycan array binding signal (z-score),[39],1.01
same,glycan array binding signal (z-score),[40],-0.935
same,glycan array binding signal (z-score),[41],-0.173
same,glycan array binding signal (z-score),[42],0.309
same,glycan array binding signal (z-score),[43],3.12

# A stretch taken from the entries so far:
binder,measurement,setting,value
"cFel (Cyprinus carpio), P68512 (protein) LDCTVIDGNLKQIDAGSGSVVGVNNLNETFVLIDNVFTKISGSLKHFSVGPAGQLGVNTANNIFKYQSGGFVQLAGLLKQVDAGGDQIIAGVNMYDDIYCLNMDANNKWPSSNTPWVQINGKLKYYSCGPYSCWGVNSNDQIFIMKDVSSNVCSGSGSFINIPGLLSMIEVATDGSVFGVNSQGNLYQRTGVTRSKPDGTDWISMVACPNGHKHVSFDLGVLWLVCVDGSIRKCILTD",glycan array binding signal (z-score),[35],0.163
same,glycan array binding signal (z-score),[36],0.69
